PubChem BioAssay AID1053208, Peter MacCallum Cancer Centre, 2014

Assay: 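Find knock-downs that sensitise mouse osteosarcoma cells to doxorubicin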 (primary screen)
System: mouse osteosarcoma cells, early-passage culture from an engineered mouse model of fibroblastic bone tumour
Reagent: siRNA pool against mouse genes, 40 nM
Time to read-out: about 120 h (48 h before drug, then 72 h with drug)
Challenge: doxorubicin 100 nM for 72 h, roughly 30-40% inhibitory dose
Detection: 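Viability read as ATP luminescence after 72 h of 100 nM doxorubicin or none, duplicate wells averaged, scaled to non-targeting siRNA, then expressed as robust z-scores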
Reading the numbers: viability z-score with doxorubicin: higher = more viable cells under doxorubicin; viability z-score without drug: higher = more viable cells with knock-down alone
Active means: 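a pool counts as active when its viability z-score with doxorubicin is -2 or below and its z-score without drug lies between -2 and 2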
The whole screen tested about 17,000 reagents; below is a random part of them. Of all reagents, 788 (4.7%) got an active call. 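Calls rest on z-score classes alone; an extra cut-off of viability at most 70% of control was not applied to them.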 A number with no mark means an inactive call. The numbers tell different reagents against one gene apart. A reagent listed more than once was tested more than once; the source does not tell the runs apart. Further read-outs or replicates are left out here. No sequences are given here.

target gene | reagent | combined z-score class | viability z-score with doxorubicin | viability z-score without drug
Siglec1 | 1 | no change with or without drug | 1.69 | 0.51
Dlc1 | 1 | no change with or without drug | -1.8 | 1.18
Sfr1 | 1 | no change with or without drug | 0.22 | 1.52
Abcc9 | 1 | no change with or without drug | -0.67 | -0.34
Atp1b4 | 1 | no change with or without drug | 0 | -0.34
Penk | 1 | no change with or without drug | 0.9 | -0.17
Sqle | 1 | no change with or without drug | -0.67 | -0.17
Iqcc | 1 | no change with or without drug | 0.22 | -0.84
Kif20a | 1 | no change with or without drug | -0.79 | -0.51
Abcb1b | 1 | no change with or without drug | 0 | -0.84
Or4k51 | 1 | no change with or without drug | -0.9 | -1.18
Snu13 | 1 | low cell count with doxorubicin only (active) | -2.36 | -1.52
Doc2a | 1 | no change with or without drug | -0.11 | 1.35
Nlk | 1 | no change with or without drug | 0.22 | 0.67
Nr2f2 | 1 | no change with or without drug | 0.9 | -0.17
Nr2f2 | 2 | no change with or without drug | 0.67 | 1.52
Or10ak7 | 1 | no change with or without drug | -0.56 | -0.34
Or10ak7 | 2 | no change with or without drug | -0.9 | -1.18
Lrrc1 | 1 | no change with or without drug | -0.9 | -1.35
Kcnk12 | 1 | no change with or without drug | -1.35 | -0.84
Wdr1 | 1 | no change with or without drug | -1.35 | -0.84
Uqcr10 | 1 | low cell count without drug only | 0.34 | -2.19
Rps6kb1 | 1 | no change with or without drug | 0.45 | 1.01
Zc3h11a | 1 | no change with or without drug | -0.56 | 0.51
Sf3b3 | 1 | low cell count with and without drug | -3.82 | -2.87
Ube3b | 1 | no change with or without drug | -0.11 | -0.17
Or5aq1 | 1 | high cell count without drug only | 1.35 | 2.87
Npm3 | 1 | no change with or without drug | 0.9 | -0.84
Neurl1a | 1 | no change with or without drug | 1.12 | 0.84
Ifitm5 | 1 | no change with or without drug | -1.12 | -0.51
Fthl17e | 1 | low cell count with doxorubicin only (active) | -2.47 | 0.51
Slc12a9 | 1 | no change with or without drug | 1.12 | 1.01
Slc12a9 | 1 | no change with or without drug | 0.9 | 1.01
Alx1 | 1 | no change with or without drug | 0.45 | 1.01
